PubChem BioAssay AID1259424 – University of Nebraska Medical Center – 2018
Here is a random part of about 14,000 reagents. 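Higher correlation or smaller distance means closer resemblance to KSR1 loss; control wells, including KSR1 knockdowns, recur on many plates.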 A reagent listed more than once was tested more than once; the source does not tell the runs apart. Not stated in the record: the time to read-out.

- Screen: 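Rank knockdowns across the genome by resemblance to the KSR1 depletion profile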 (primary screen)
- Cells: human HCT116 colon cancer cells
- Knock-down reagent: siRNA pool against human genes, 50 nM
- Read-out: 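Six signature mRNAs by branched-DNA multiplex assay, scaled to two housekeeping genes and non-targeting median, log2; matched to mean KSR1 knockdown profile by Pearson correlation and euclidean distance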
- Direction: mean correlation with KSR1 profile and KSR1 correlation: higher = expression change more like KSR1 knockdown; mean distance from KSR1 profile: higher = expression change less like KSR1 knockdown

no.	Gene	mean correlation with KSR1 profile	mean distance from KSR1 profile	KSR1 correlation, replicate 1	KSR1 correlation, replicate 2	KSR1 correlation, replicate 3
1	POM121L9P (POM121 transmembrane nucleoporin like 9, pseudogene)	-0.092	2.4	-0.327	-0.369	-0.297
2	EFL1 (elongation factor like GTPase 1)	0.355	2.18	0.379	0.39	0.412
3	SH3KBP1 (SH3 domain containing kinase binding protein 1)	-0.214	3.01	-0.144	-0.121	-0.187
4	SUZ12 (SUZ12 polycomb repressive complex 2 subunit)	0.0366	1.7	0.15	0.115	-0.325
5	DDX55 (DEAD-box helicase 55)	-0.417	2.54	-0.433	-0.135	-0.312
6	GRK2 (G protein-coupled receptor kinase 2)	0.146	2.12	0.135	0.147	0.105
7	GRK2 (G protein-coupled receptor kinase 2)	0.0235	3.23	0.136	-0.0661	-0.152
8	LHX1 (LIM homeobox 1)	0.602	1.21	0.616	0.495	0.466
9	TXNDC16 (thioredoxin domain containing 16)	-0.212	1.66	-0.262	-0.14	-0.141
10	MRM3 (mitochondrial rRNA methyltransferase 3)	-0.431	1.91	-0.524	-0.71	-0.235
11	BCAS1 (brain enriched myelin associated protein 1)	-0.142	2.82	-0.133	-0.32	0.0175
12	DHX58 (DExH-box helicase 58)	-0.391	3.29	-0.252	-0.347	-0.734
13	CCL14 (C-C motif chemokine ligand 14)	-0.0936	1.37	0.113	-0.19	-0.172
14	ELAPOR1	-0.144	3.15	-0.37	-0.148	0.209
15	SLC7A2	-0.0959	1.37	-0.0834	-0.101	-0.139
16	AP2S1 (adaptor related protein complex 2 subunit sigma 1)	0.00975	2.95	-0.0749	0.138	-0.191
17	AURKAIP1 (aurora kinase A interacting protein 1)	-0.243	1.28	-0.431	0.122	-0.516
18	TOX3 (TOX high mobility group box family member 3)	-0.494	1.83	-0.611	-0.507	-0.392
19	SMUG1	-0.481	1.8	-0.15	-0.705	-0.682
20	UBA3 (ubiquitin like modifier activating enzyme 3)	-0.0682	2.42	0.0188	-0.153	-0.146

Reformatted: results already given
Gene,mean correlation with KSR1 profile,mean distance from KSR1 profile,"KSR1 correlation, replicate 1","KSR1 correlation, replicate 2","KSR1 correlation, replicate 3"
SH3KBP1 (SH3 domain containing kinase binding protein 1),-0.214,3.01,-0.144,-0.121,-0.187
SUZ12 (SUZ12 polycomb repressive complex 2 subunit),0.0366,1.7,0.15,0.115,-0.325
